PubChem BioAssay AID686943, Drosophila RNAi Screening Center – 2013

- Test: 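Knockdowns that increase or decrease active ERK after insulin receptor stimulation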 (primary screen)
- Cells: Drosophila S2R+ haemocyte-like cells expressing YFP-tagged ERK (Rolled)
- Reagents: long dsRNA against Drosophila genes
- Treatment: insulin stimulation versus unstimulated cells; dose and duration not given
- Read-out: 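Antibody staining for doubly phosphorylated ERK divided by ERK-YFP signal, as plate z-scores, in insulin-treated and untreated cells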
- Direction: replicate 1, z-score of dpERK with insulin and replicate 2, z-score of dpERK with insulin: higher = more active ERK per ERK-YFP after insulin
The deposit covers about 23,000 reagents; this is a random part of those that have a named target and a result. 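Extra replicates exist only for a retested subset of genes; insulin dose and duration not given; both raised and lowered dpERK matter.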 Reagents against one gene are numbered here. A plus sign joins genes that one reagent is predicted to hit. Not all columns of the deposit are shown. Reagent sequences are not shown. The record does not give: the amount of reagent, the time to read-out.

gene	dsRNA no.	replicate 1, z-score of dpERK with insulin	replicate 2, z-score of dpERK with insulin
l(2)03659	1	-0.16	-0.18
l(2)03659	2	-0.53	0.3
CG14931	1	-0.79	-0.69
MESR3	1	-0.12	0.22
Mco1	1	0.61	0.15
CG8301	1	-0.53	0.24
cass	1	-0.35	0
uri	1	-4.46	-2.85
CG13077	1	0.7	-0.16
CG6230	1	0.47	-0.21
mthl8	1	-0.07	0.18
mthl8	2	0.12	0
CG34315 + Orc3	1	0.22	0.37
CG31036	1	0.81	-0.05
CG31036	2	-0.2	-0.97
CG9806	1	0.64	0.45
CG13228	1	1.1	-0.09
Mgat4a	1	1.01	0.28
Mgat4a	2	-0.54	0.03
CG10177	1	-0.09	0.07
CG15399	1	-0.9	-0.34
Ugt37A2	1	0.44	1.64
mib1	1	0.78	2.27
nahoda	1	-0.13	-0.09
nahoda	2	0.34	0.31
Cnep1r1	1	-0.51	-0.6
Mms19	1	0.32	0.03
Nup358	1	-1.54	0.76
alpha-Est4	1	0.54	0.56
baz	1	0.25	1.05

Copied from the listing, 11 entries:
gene	dsRNA no.	replicate 1, z-score of dpERK with insulin	replicate 2, z-score of dpERK with insulin
CG6230	1	0.47	-0.21
mthl8	1	-0.07	0.18
mthl8	2	0.12	0
CG34315 + Orc3	1	0.22	0.37
CG31036	1	0.81	-0.05
CG31036	2	-0.2	-0.97
CG9806	1	0.64	0.45
CG13228	1	1.1	-0.09
Mgat4a	1	1.01	0.28
Mgat4a	2	-0.54	0.03
CG10177	1	-0.09	0.07

The list goes on:
gene	dsRNA no.	replicate 1, z-score of dpERK with insulin	replicate 2, z-score of dpERK with insulin
Ugt37E1	1	0.34	0.55
Nrx-IV	1	0.16	0.67
Peritrophin-15a	1	0	0.72
CG3436	1	-1.28	0.03
Pmm2	1	0.48	0.11
Blm + CG14721	1	-0.22	-0.56
tei	1	-0.2	-0.01
Scsalpha1	1	0.26	-1.28
Uxt	1	-0.77	-0.24
CG32391	1	-0.16	-1.53
Snap25	1	0.52	0.16
Snap25	2	-0.35	0.04
CG11333	1	-0.45	-0.21
Aptx	1	-0.48	0.07
ND4 (retired record)	1	0.42	0.59
Lgr4	1	0.42	0.37
Lgr4	2	-0.12	1.16
Lgr4	3	0.04	0.17
CG13457	1	-0.05	-1.34
Sln	1	0.35	-0.33
CG5762	1	-0.45	-0.56
CG32625	1	0.25	0.61
CG7991	1	0.6	0.94
PIP82	1	-1.36	-0.59
CG9705	1	0.63	0.57
CG15464 (retired record)	1	0.55	0.54
CG15464 (retired record)	2	0.71	-0.63
Cyp4e2	1	-0.13	0.05
Art4	1	1.72	0.64
Kr-h1	1	-1.05	0.44
Kr-h1	2	0.89	0.62
CG14668	1	-0.09	-0.21
Alg14	1	0.34	0.88
CG11899	1	0.09	-0.14
Prx6c	1	0.58	0.09
CG14435	1	-0.94	-0.22
hog	1	-0.77	0.19
CG13144	1	-0.9	0.32
eIF3c	1	-1.3	-0.6
Skel	1	0.06	0.12
Skel	2	0.32	0.26
CG16713	1	-0.29	0.84
PIG-F	1	1.1	0.37
